“And” between values parts separate entries of the source, which are not always exact repeats. Equal entries are not always repeated. This continues a long series; more values of the same kind are listed elsewhere.
How the values were obtained:
[1] = Colorimetric alkylation rate constant assay with TNB^2− as non-specific thiol; assay type: physicochemical; conditions: in µM
[2] = test system: MC38 tumours; conditions: individual mice, day 5
[3] = Replicate 1, 181 sec, [B]0 = 250
[4] = Replicate 1, 362 sec, [B]0 = 250
[5] = Replicate 1, 542 sec, [B]0 = 250
[6] = Time 3613 sec, [B]0 = 250, Replicates 1-3
[7] = Time 3794 sec, [B]0 = 250, Replicates 1-3
[8] = Time 3974 sec, [B]0 = 250, Replicates 1-3
[9] = Time 4155 sec, [B]0 = 250, Replicates 1-3
[10] = Time 4336 sec, [B]0 = 250, Replicates 1-3
[11] = Time 4516 sec, [B]0 = 250, Replicates 1-3
[12] = Time 4697 sec, [B]0 = 250, Replicates 1-3
[13] = Time 4878 sec, [B]0 = 250, Replicates 1-3
[14] = Time 5058 sec, [B]0 = 250, Replicates 1-3
[15] = Time 5239 sec, [B]0 = 250, Replicates 1-3
[16] = Time 5419 sec, [B]0 = 250, Replicates 1-3
[17] = Time 5600 sec, [B]0 = 250, Replicates 1-3
[18] = Time 5781 sec, [B]0 = 250, Replicates 1-3
[19] = Time 5961 sec, [B]0 = 250, Replicates 1-3

Row | SMILES | remaining [B] ([1]; Replicate 1, 0 sec, [B]0 = 250) | remaining [B] [1, 3] | remaining [B] [1, 4] | remaining [B] [1, 5] | remaining [B] ([1]; Replicate 2, 0 sec, [B]0=250) | remaining [B] ([1]; Replicate 2, 181 sec, [B]0=250) | remaining [B] ([1]; Replicate 2, 362 sec, [B]0=250) | remaining [B] ([1]; Replicate 3, 0 sec, [B]0=250) | remaining [B] ([1]; Replicate 3, 181 sec, [B]0=250) | remaining [B] ([1]; Replicate 3, 362 sec, [B]0=250) | remaining [B] ([1]; Replicate 3, 542 sec, [B]0=250) | remaining [B] [1, 6] | remaining [B] [1, 7] | remaining [B] [1, 8] | remaining [B] [1, 9] | remaining [B] [1, 10] | remaining [B] [1, 11] | remaining [B] [1, 12] | remaining [B] [1, 13] | remaining [B] [1, 14] | other results
1 | COc1cc2sc(C(=O)CCC(=O)O)cc2cc1NC(=O)CCl [Compound E2] | 245.124 | 244.418 | 244.129 | 243.864 | 244.701 | 244.084 | 244.008 | 243.221 | 242.818 | 243.032 | 242.717 | 238.773 and 238.993 | 237.526 and 238.572 and 238.666 | 237.299 and 238.294 and 238.439 | 237.022 and 238.068 and 238.187 | 236.77 and 237.677 and 237.884 | 236.505 and 237.4 and 237.582 | 236.241 and 237.135 and 237.405 | 236.052 and 236.934 and 237.103 | 235.724 and 236.719 and 236.826 | remaining [B] [1, 15]: 235.485 and 236.43 and 236.549; remaining [B] [1, 16]: 235.207 and 236.165 and 236.309; remaining [B] [1, 17]: 235.006 and 235.875 and 236.057; remaining [B] [1, 18]: 234.716 and 235.636 and 235.755; remaining [B] [1, 19]: 234.376 and 235.321 and 235.503
2 | O=C(CCl)Nc1ccc(F)cc1 [Compound C3] | 247.134 | 246.277 | 245.534 | 244.904 | 246.132 | 245.552 | 245.262 | 247.789 | 245.37 | 245.332 | 245.231 | 239.334 and 239.579 | 239.485 and 239.032 and 239.289 | 239.258 and 238.742 and 238.949 | 238.893 and 238.528 and 238.684 | 238.628 and 238.112 and 238.357 | 238.301 and 237.772 and 238.054 | 237.898 and 237.494 and 237.739 | 237.671 and 237.28 and 237.462 | 237.343 and 236.927 and 237.223 | remaining [B] [1, 15]: 237.041 and 236.688 and 236.845; remaining [B] [1, 16]: 236.877 and 236.297 and 236.58; remaining [B] [1, 17]: 236.436 and 236.033 and 236.29; remaining [B] [1, 18]: 236.222 and 235.743 and 235.95; remaining [B] [1, 19]: 235.881 and 235.403 and 235.673
3 | C=CS(=O)(=O)Nc1cc2cc(C(=O)CCC(=O)O)sc2cc1OC [Compound E1] | 250.574 | 249.503 | 248.394 | 247.714 | 250.164 | 248.967 | 248.337 | 250.498 | 249.377 | 249.389 | 248.734 | 239.977 and 241.242 | 241.123 and 239.876 and 240.764 | 240.443 and 239.12 and 240.562 | 240.355 and 239.032 and 240.033 | 240.077 and 238.427 and 239.68 | 239.624 and 238.061 and 239.39 | 239.208 and 237.608 and 239.126 | 238.868 and 237.457 and 238.785 | 238.502 and 237.053 and 238.395 | remaining [B] [1, 15]: 238.414 and 236.6 and 237.991; remaining [B] [1, 16]: 237.86 and 236.322 and 237.525; remaining [B] [1, 17]: 237.482 and 235.831 and 237.324; remaining [B] [1, 18]: 237.104 and 235.466 and 236.958; remaining [B] [1, 19]: 236.574 and 235.05 and 236.53
4 | O=C(CCl)Nc1ccccc1 [Compound C2] | 245.849 | 245.382 | 245.017 | 244.349 | 246.774 | 246.22 | 245.817 | 247.399 | 246.491 | 246.063 | 245.723 | 238.691 and 239.856 | 239.687 and 238.364 and 239.504 | 239.498 and 238.061 and 239.201 | 239.095 and 237.809 and 238.886 | 238.691 and 237.406 and 238.584 | 238.439 and 237.116 and 238.243 | 238.175 and 236.826 and 237.979 | 237.835 and 236.511 and 237.651 | 237.494 and 236.259 and 237.273 | remaining [B] [1, 15]: 237.217 and 235.932 and 237.034; remaining [B] [1, 16]: 237.003 and 235.68 and 236.656; remaining [B] [1, 17]: 236.587 and 235.34 and 236.379; remaining [B] [1, 18]: 236.209 and 235.075 and 236.064; remaining [B] [1, 19]: 235.944 and 234.71 and 235.736
5 | O=C(CCl)N1CCOCC1 [Compound C4] | 246.888 | 246.132 | 244.91 | 244.091 | 244.336 | 243.378 | 242.799 | 246.258 | 244.557 | 244.066 | 243.788 | 232.372 and 230.815 | 231.666 and 231.679 and 230.16 | 231.011 and 231.049 and 229.543 | 230.369 and 230.343 and 228.938 | 229.751 and 229.713 and 228.32 | 229.146 and 229.045 and 227.678 | 228.529 and 228.415 and 227.06 | 227.911 and 227.798 and 226.493 | 227.332 and 227.181 and 225.888 | remaining [B] [1, 15]: 226.664 and 226.551 and 225.233; remaining [B] [1, 16]: 226.072 and 225.983 and 224.679; remaining [B] [1, 17]: 225.53 and 225.341 and 224.099; remaining [B] [1, 18]: 224.938 and 224.736 and 223.494; remaining [B] [1, 19]: 224.383 and 224.106 and 222.952
6 | COc1cc2cc(C(=O)CCC(=O)O)sc2cc1OC [MSA2] |  |  |  |  |  |  |  |  |  |  |  |  |  |  |  |  |  |  |  |  | Tumor Size [2]: 81.683 mm^3 and 103.155 mm^3
7 | O=C(CCl)Nc1ccccc1C(=O)O [Compound C5] | 248.01 | 247.342 | 246.913 | 246.561 | 246.579 | 245.772 | 245.81 | 247.947 | 245.061 | 245.301 | 245.427 | 245.023 and 244.122 | 244.204 and 244.897 and 244.071 | 244.116 and 244.847 and 243.983 | 244.003 and 244.721 and 243.908 | 243.927 and 244.658 and 243.807 | 243.914 and 244.494 and 243.731 | 243.788 and 244.532 and 243.655 | 243.751 and 244.456 and 243.58 | 243.625 and 244.318 and 243.492 | remaining [B] [1, 15]: 243.574 and 244.229 and 243.403; remaining [B] [1, 16]: 243.499 and 244.166 and 243.353; remaining [B] [1, 17]: 243.41 and 244.078 and 243.252; remaining [B] [1, 18]: 243.322 and 244.015 and 243.151; remaining [B] [1, 19]: 243.259 and 243.889 and 243.088

From publication PMC12669040, “Tumour-specific STING agonist synthesis via a two-component prodrug system” (Nature Chemistry, 2025)
